Test: Back-extraction experiment from DES imidazole/hexanoic acid by addition of imidazole (GC-FID)

CCCCCCCCCCCC [dodecane]
back-extraction efficiency (> 60 mol% imidazole, from DES imidazole/hexanoic acid): 97%
back-extracted (summary in description, imidazole content not stated): ~100%

— patent EP3878534A1, “EXTRACTION AND BACK-EXTRACTION OF HYDROPHOBIC COMPOUNDS USING DEEP EUTECTIC SOLVENT WITH TUNEABLE HYDROPHOBICITY” (Wageningen Universiteit, priority 2020, dated 2021)
